The campaign covered roughly 53,000 sequences. About 3,700 (7%) were called active.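 The calls were made as follows: active = gene knockdowns whose robust z-score for IL-1 alpha signal is at least 2 or at most -2, so actives lie on both sides; inactive = the rest.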 This is one part of the list.

A short description of this test: Components of the Cytosolic LPS Sensing Pathway: Gene Identification via Genome-wide siRNA Screen.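 Also: robust z of the log signal after scaling to non-targeting control siRNA wells of the plate.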 Conditions: RAW264.7 macrophages, IL-1a HTRF, actives lie on both sides, screened at 100 nM (by protocol), cells primed 5 h with Pam3CSK4 first. An outline of the steps:
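Knockdown: 100 nM siRNA, 48h, RAW264.7. Stimulation: Pam3CSK4 5 h, then LipidA via TransIT-TKO 24 h. Output: supernatant IL-1a HTRF, negative-control-normalized, log robust z-score; viability by CellTiter-Glo.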
Take “GGUAGAACAUGAAGUCUCUTT against St6galnac4”: the z-score is inactive: -1.45. With CGCAGUCCUGUCAGACUUUTT against Otud7a, the z-score is inactive: 1.08. The result for “GGCUUUUUUGUCUUAGGCUTT against A530013C23Rik” reads inactive: 0.00244; that for GAACUGGAAUGCCUGAUGGTT against Gm10037, inactive: -0.642; that for CGUAAAUUCACCAAGGAGCTT against Slc19a1, inactive: -0.805. For CGUUCUUCAUGAAACAUUCTT against Ryr3, the z-score was inactive: 0.8. For GGCCUUAACCUGAUAGUUGTT against Nt5m, the z-score was inactive: 0.186. The value for GUGACAGUGGCAUCAGCAUTT against Smim14 was inactive: 0.876.

Consider GCACUCGAAUUUCUUUACUTT against Slc23a2, for which the z-score is active: 2.22.

In the case of GGACAGUUCUAAAAUUCCCTT against Olfr780, the z-score is inactive: -1.73. As for CCUGACCGUUAACAGCUGUTT against Aamp, the z-score is inactive: 0.34. The value for GGGUCAGAAAAGUCUGUCATT against Vangl1 was inactive: -0.271; that for CCACUCAAGCGGUAAGGAUTT against Slc22a1 was active: 4.16; that for GGAGAGAAGUGACAACGAATT against Adamts8 was inactive: -0.862. The value for GGGCAUUGACCACAAAAAGTT against Ubiad1 was inactive: -1.03; that for GGAUAGAAAACAGUAUCUGTT against Fggy was inactive: 1.07.

On to CCUCUACUUAAUGUGCAACTT against Npc1l1, for which the z-score was inactive: 1.08. For GCUAAGAAGAGGAUUCCAATT against Spag1, the z-score was inactive: -0.579. The result for GUCACAAGCUGUCCAACAATT against Ndufa7 reads active: -2.25; that for GGACCUUCCUACGAGAAAATT against Tm2d2, inactive: 0.0894; that for GGACAGCAAGACCAACCUATT against Elavl2, inactive: -1.87. The value for GGUGGUCUGAUCGUAGACATT against Lrrc61 was inactive: 0.672; that for GUUUUCAGAGCUCUGCAUUTT against Fam98b was inactive: 0.812. The value for GGAGUGAUUAACCUAACUCTT against Crip3 was inactive: -1.3; that for GGAACAUCACCCUUGCCAATT against Scara5 was inactive: -0.89. As for CGUAUAAUAACUCCUUAUCTT against Hoxa1, the z-score was active: 2.17. The result for GCAAUACUUAUCCAUUGCGTT against Msx3 reads inactive: -0.42; that for GGGUAAAUCCUUCAUUCUGTT against Atl3, inactive: 1.49; that for CUUUCCUUCACUGAUGUCATT against Olfr666, inactive: -1.42. The result for GCUAAUGCUAGUGAAAUUCTT against Rbm12b1 reads inactive: 0.169; that for UCACCAUCUUGAAGAUUCGTT against Olfr486, inactive: -0.792; that for GCAAGAGUCUGCUACGACATT against Opn1sw, inactive: 0.629. The value for CCAGAACUGUGAGUGGAUUTT against Nrp2 was inactive: -0.644; that for GCGAGAGCUUCUUAACUGUTT against Ssh2 was inactive: 1.54; that for GCAGACCUAACUAAGCUUUTT against Vmn2r30 was inactive: -0.504. Turning to GCUGACCGGCAUUUACCAUTT against Mcm2, the z-score was active: 2.78. The value for GCACUACAUUGUGGCUGUCTT against Itpr3 was active: -2.57. The value for CGCCGCACAGUUAAUGCUUTT against Mettl17 was inactive: 0.973; that for GGCUGUGGUAUUUUUGGUUTT against Vopp1 was active: 2.15. The value for GGUGUUGAGUUCAAGUCUATT against Dennd11 was inactive: -0.468; that for GCGAUUCUGUUGUUAGCUUTT against Rln1 was inactive: 0.134.

As for GGAAGCUUAAUUGUGCACATT against Zfp637, the z-score is inactive: 0.184.

Regarding CCAGGACCUUAUCAGGUUUTT against Idh2, the z-score is active: 2.44.

With “GCUUGAUGGAAUCUUCUAGTT against 1700030K09Rik”, the z-score was inactive: 0.508. Take GGAUGAAGUGCUAAUAGGATT against Fam3b: the z-score was inactive: 0.309. Consider GGGCAUGGACAAAAAGAAGTT against Prpf3, for which the z-score is inactive: -1.78.

In the case of GGCAUAGCCAUGAUGACAUTT against Denn2b, the z-score is inactive: -1.3. Consider GGAGUACAGCAUCUCAGCATT against Cacng1, for which the z-score is active: -2.17.

As to GGCUGCACACAAUAUGAACTT against Mrm2, the z-score is inactive: 0.134. For GCCGAAUAUUAAAUGGUUUTT against Gnl2, the z-score is inactive: 0.93. The value for GGUGUUAGCCUAGAAAAACTT against Fbxo43 was inactive: -0.646; that for GGACCGUUUACAACUUCUATT against Spast was inactive: 0.872; that for “CCACAUGAUUCUGACAUAUTT against A830019P07Rik” was inactive: -1.06. The value for GGUCUAUUUGACCUCUUAATT against Bcl2l13 was active: 2.22. The value for CGGAUUGAUUUCUGAUGCGTT against Krt77 was inactive: -0.561. For GCGGUGCUUAGAGCAACUGTT against Mxd3, the z-score was inactive: -0.531.

For GGAAAUCCGCUUCACCAUCTT against Efnb1, the z-score was inactive: 1.28. The result for GCAUGUUGCAUCACAGGGATT against Zfp106 reads inactive: -0.355.

CCAGGACCUAGAGUACCUUTT against Osgin1: the z-score is inactive: 0.0607. The value for GGAAUUCGUAAUCACGCAATT against Vmn1r62 was inactive: -1.23; that for UCACAAGUACAGAUCUGAATT against Vmn1r209 was inactive: -0.188. The value for GCUUACAAUGAAUGAUGAUTT against Psme4 was inactive: -0.061; that for GAAAAAAUGCCAGCUGUGGTT against Sec61b was inactive: 0.379. The value for GCUAAUCCGGGCAAAAUCGTT against Gbp3 was inactive: 0.656.

GGAAAAGCAUAAAGAAAAGTT against Ralbp1: the z-score is inactive: 1.33. The value for GGAAAAGCUUUUGUUCCCATT against Tfb1m was active: 2.58; that for GGUAACUCUCCUUAGCCAGTT against Klk10 was inactive: -0.0493; that for GGUCCCUUGAUGUCGAUUATT against Stt3b was inactive: -1.15. The value for GGUCACUCCGAUGUUAUUUTT against G6pc was inactive: -1.47; that for GCCAUGAUGACUAACCUUATT against Dbpht2 was inactive: -1.27; that for GGAUAGCAAUUGUCUUUCATT against Zfp947 was inactive: -0.142. The value for CCAAAUUCAUCAGAUCUUCTT against Olfr424 was inactive: -0.987; that for CCUGUGGUGCAAACGGUUGTT against Osm was inactive: -0.254; that for GGAUAACAAACCUGAAUCATT against Xkr5 was inactive: -0.797. GACAAAUAGUGCAGGAGGATT against Lce1i: the z-score was inactive: -0.537. The result for GGAAGAAGACAUGCUCACUTT against Pcdhb8 reads inactive: 1.07.

On to GGUGCUACUCCAGAUUGACTT against Tbc1d13, for which the z-score is inactive: 0.63.

In the case of GGACGGCAAAUUUGGUUUCTT against Mmp9, the z-score was inactive: 1.28. The result for GGACAAUGACCAGUUGAACTT against Prrx1 reads inactive: 0.916; that for CCCUUGUUGUUUAUCCUCATT against Ly6f, inactive: -1.06.

In the case of GGAAGGUGUCAAUAAAGAUTT against Lypd3, the z-score was inactive: 0.0184. The result for GGAGUUUGUGUUGUCAGUGTT against Kcng3 reads inactive: -0.857; that for GCAGAAAUGUCCAUCCAAATT against Sprr2k, active: 2.36. The result for GGUUUGUUUUUGUUCGUUUTT against Cytip reads inactive: -0.067; that for CCCUGAUUGGACUGAACUCTT against Olfr145, inactive: 1.49; that for GGACCAAAAGAAAGUAGAATT against Tbc1d9b, inactive: 1.44. The value for CCUGAGACAUACUUAAUGUTT against Anapc10 was inactive: 0.747; that for GCUGCAUUGGUUGAAUGUGTT against Slc22a1 was inactive: -0.141.

As for GCAUAUAUCUGUGGAGUGUTT against Olfr1502, the z-score is inactive: -1.34. On to CCACCCUUGGUAAAAAUGUTT against Olfr1006, for which the z-score is inactive: -1.63. The value for GGAUCUUUGCUACAAAAACTT against Fhl5 was inactive: 0.48. The result for GGAUUAGAGAAAUAGGGCUTT against Apol10a reads active: -2.09; that for GGAUCAGAGAACAGAGUCUTT against Alms1, inactive: -1.79. The result for GGUAAUGUGGAACACAGCATT against Gsr reads inactive: -0.831. Regarding GGGUGAAAAGCAUUUCUGUTT against Actrt3, the z-score is inactive: 0.583. As to GGGAUUCAGAACUUAAAGUTT against Vmn1r236, the z-score is inactive: 0.475.

For the sequence GUGGCUGACAAGUUUAUCATT against Cyp2c66, the z-score is inactive: -0.132. For GGAGGAACUCCUAAAGAAGTT against Galntl5, the z-score is inactive: -0.511. The result for GCCAUCUCUAUGUUGUUGATT against Smtnl2 reads inactive: -0.108; that for CCCAGAGAUAAAGACGGGCTT against B4galt1, inactive: -0.325; that for GCUACCAUGCCCUAUGUAGTT against Slc6a3, inactive: -0.694. The result for GGUUCAUUUAUACUUAACCTT against Tgif2lx1 reads inactive: -0.854; that for GAUGUGUUAACUACACCGATT against Pyy, inactive: 0.983; that for GGACCAUGGCAUUAAACUGTT against S1pr1, inactive: -0.515. The result for GCACCUCUCCCUACGAUUATT against Cxcr3 reads inactive: 0.142; that for GGCUUUGAUUAUGUUCCCATT against Fcer2a, inactive: -0.188. In the case of GGCAUCAAGUGACUUAUAATT against Zfp772, the z-score is active: 2.47.

For the origin of these results see PubChem BioAssay AID1508600 (Functional Genomics Laboratory (NCATS/FGL), 2020).
